In PubChem BioAssay AID504847 (National Center for Advancing Translational Sciences (NCATS), 2011):
Several values for one entry are separate records, joined by “and”; a condition that tells them apart may be missing. Identical values can stand only once. Among all 400,000 compounds or so, about 3,700 (0.93%) were called active. The shares of active, inactive and inconclusive entries below differ from those in the screen. Calls follow the shape of the dose curve; as a rule, active = well fitted inhibition curve with a large enough effect; inconclusive = small, poorly fitted or top-dose-only effect, or another doubt; inactive = no such curve, though single readings can be large or run the other way. Potencies beside an inconclusive call are fits to weak or partial responses and may not hold up. The source holds several records for some structures; these can differ, active in one and inactive in another.

Sequences of proteins named here, by UniProt entry; tags and fusion partners are left off.
UniProt P11473, whole entry, looked up: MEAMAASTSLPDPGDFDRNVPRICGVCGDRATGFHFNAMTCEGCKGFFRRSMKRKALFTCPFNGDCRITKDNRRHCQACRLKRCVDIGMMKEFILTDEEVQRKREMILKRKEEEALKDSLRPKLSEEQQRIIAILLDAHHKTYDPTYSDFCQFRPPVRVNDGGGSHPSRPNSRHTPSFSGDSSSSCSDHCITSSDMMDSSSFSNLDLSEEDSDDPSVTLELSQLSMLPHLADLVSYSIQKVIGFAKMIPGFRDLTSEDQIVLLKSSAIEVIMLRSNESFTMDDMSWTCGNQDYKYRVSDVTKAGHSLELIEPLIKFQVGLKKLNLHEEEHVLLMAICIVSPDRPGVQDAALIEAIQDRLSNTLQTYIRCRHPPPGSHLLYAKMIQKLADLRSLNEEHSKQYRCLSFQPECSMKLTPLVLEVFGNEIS

Target: Vitamin D3 receptor (Homo sapiens) (UniProt P11473)
Assay: Inhibitors of the vitamin D receptor (VDR): qHTS
Conditions: VDR-SRC2-3 peptide fluorescence polarization, 2 h; max response, negative = inhibition: active compounds read low
How it was run: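 FP read-out; VDR + SRC2-3 coactivator peptide; 23 nl compound by pintool; 2 h RT incubation; reagents held at 4 deg C, protected from light.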
% is scaled to controls: 0 for no effect and ±100 for the full control effect; potency is read from the fitted curve at half-maximal effect.

SMILES | Potency | max response, negative = inhibition
COc1cc2c(C#N)c(N3CCCC3)nc(N)c2c(N)n1 | active: 28.2 µM | –
COc1cccc(/C=C2\N=C(C3CCCCC3)OC2=O)c1OC | active: 31.6 µM | –
COCc1cc(C)n(CC(=O)Nc2ccccc2OC)c(=O)c1C#N | inconclusive: 35.5 µM [inhibitor, single point] | –
CCOC(=O)N1C(=O)[C@](CC)(c2ccccc2)N1C(=O)OCC | active: 79.4 µM | –
CCOC(=O)c1c(-c2ccc(C)o2)csc1NC(=S)NC(=O)N(C)C | inconclusive: 56.2 µM [inhibitor, partial curve, poor fit] | –
CC(C)(C)NC(=O)NC12CC3CC(CC(C3)C1)C2 | – | inactive: -20.7%
CCOC(=O)c1ccc(NC(=O)CCc2ccc(CC)o2)cc1 | inconclusive: 89.1 µM [inhibitor, single point] | –
Cc1cc(C)c2nc(N3C(=O)C(O)=C(C(=O)c4ccco4)C3c3ccco3)sc2c1 (stereo unspecified) | inconclusive: 89.1 µM [inhibitor, partial curve, poor fit] | –
Cc1ccc(OCc2nc(-c3ccccc3)no2)cc1 | inconclusive: 12.6 µM [inhibitor, partial curve, poor fit] | –
CCOC(=O)CSc1nc2c(c(=O)[nH]c(=O)n2C)n1C/C=C(/C)Cl | inconclusive: 89.1 µM [inhibitor, single point] | –
CCN(CC(=O)NCc1cccs1)C(=O)c1ccc(-c2ccc(F)cc2)o1 | inconclusive: 89.1 µM [inhibitor, partial curve, poor fit] | –
CC1=C(C#N)C(=O)NC(=O)/C1=C/c1ccc(-c2ccc(S(N)(=O)=O)cc2)o1 | active: 25.1 µM | –
COC(=O)C1=C(C)N(c2ccc(Cl)cc2)/C(=C/c2ccc(O)cc2)C1=O | – | inactive: -1.83%
NCCc1c(-c2ccccc2)n(-c2ccccc2)c2ccccc12 | – | inactive: 5.32%
Nc1nnc(SCC(=O)NNC(=O)c2ccc(Cl)cc2)s1 | – | inactive: 8.15%
CNc1ccccc1C(C)(C)c1cc(C)[nH]n1 | inconclusive: 25.1 µM [inhibitor, partial curve, poor fit] | –
Nc1ccc(N2CCN(C(=O)c3cccs3)CC2)cc1 | inconclusive: 11.2 µM [inhibitor, partial curve, poor fit] | –
Clc1ccccc1CSc1nnc(-c2ccccn2)n1Cc1ccco1 | inconclusive: 70.8 µM [inhibitor, single point] | –
CC1=CC(=O)[C@@H](O)[C@@H](c2ccccc2Br)N1C | inconclusive: 56.2 µM [inhibitor, partial curve, poor fit] | –
N#CC1=C(N)Oc2cc3ccccc3cc2C1c1cccnc1 (stereo unspecified) | – | inactive: -5.68%
CC(=O)Nc1ccc(NC(=O)CSc2ccc(-c3ccco3)nn2)cc1 | inconclusive: 89.1 µM [inhibitor, single point] | –
CCCn1c(CC)nc([N+](=O)[O-])c1S(=O)(=O)c1ccccc1 | inconclusive: 89.1 µM [inhibitor, partial curve, poor fit] | –

SMILES | Potency | max response, negative = inhibition
CC(C)c1nc(SCC(=O)c2ccc(F)cc2)c2ccccc2n1 | inconclusive: 79.4 µM [inhibitor, single point] | –
CCC(C)NC(=O)CCn1c(-c2ccccc2)cc(C(C)=O)c1C (stereo unspecified) | inconclusive: 2 µM [inhibitor, partial curve, poor fit] | –
COc1ccc(S(=O)(=O)N2CCOCC2)cc1C(=O)N1CCCC1 | – | inactive: -19.3%
Cc1ccc(N(Cc2cc3cccc(C)c3[nH]c2=O)S(=O)(=O)c2ccccc2)c(C)c1 | inconclusive: 39.8 µM [inhibitor, partial curve, poor fit] | –
CCCCCCCCNC(=O)/C(C#N)=C/c1ccccc1[N+](=O)[O-] | inconclusive: 15.8 µM [inhibitor, full curve, poor fit] | –
O=C(c1ccccc1)N1CCN(Cc2ccccc2C(F)(F)F)CC1 | inconclusive: 89.1 µM [inhibitor, single point] | –
Cc1ccc(C)c(S(=O)(=O)Nc2cc(SCC(=O)O)c(O)c3ccccc23)c1 | active: 22.4 µM | –
O=C(CNC(=O)C1CCCCC1)NC1=NCCS1 | – | inactive: -4.48%
COCCCNC(=O)C1Cc2cc(S(=O)(=O)N3CCCC3)ccc2N1C(C)=O (stereo unspecified) | inconclusive: 31.6 µM [inhibitor, partial curve, poor fit] | –
O=C(CSc1nnc(-c2cccc(F)c2)c(-c2cccc(F)c2)n1)NC1CCCCC1 | – | inactive: 14.7%
CCOC(=O)C1CCCN(C(=O)c2cc(-c3ccco3)nc3ccccc23)C1 (stereo unspecified) | inconclusive: 100 µM [inhibitor, single point] | –
S=C1NC(c2ccccc2)N2C(=S)NC(c3ccccc3)N12 (stereo unspecified) | inconclusive: 79.4 µM [inhibitor, partial curve, poor fit] | –
CC(C)CCNC(=O)c1ccc2c(SCC(=O)O)c3c(nc2c1)CCCC3 | inconclusive: 89.1 µM [inhibitor, single point] | –
Nc1nc(SCc2ccccc2)c2ncn(CCO)c2n1 | – | inactive: 1.2%
CCOC(=O)c1c(NC(=O)COc2ccccc2Br)sc2c1CCCCC2 | active: 89.1 µM | –
Cc1ccc(C(=O)NC(C)c2ccc3c(c2)OCO3)s1 (stereo unspecified) | inconclusive: 31.6 µM [inhibitor, partial curve, poor fit] | –
CC(C)C[C@@H](CNCC(=O)[C@H](CC(C)C)NC(=O)c1[nH]cnc1C(=O)N[C@@H](C)CN)NC(=O)c1nc[nH]c1C(=O)N[C@@H](CC(C)C)C(=O)O | inconclusive: 56.2 µM [inhibitor, partial curve, poor fit] | –
CC1Sc2ccc(C(=O)NCc3ccccn3)cc2NC1=O (stereo unspecified) | active: 79.4 µM | –
N#Cc1ccc(-c2ccc(C3Nc4ccccc4C(=O)N3O)o2)cc1 (stereo unspecified) | inconclusive: 89.1 µM [inhibitor, single point] | –
CNc1ccc(S(=O)(=O)NCC(=O)NCCCc2ccccc2)cc1[N+](=O)[O-] | inconclusive: 79.4 µM [inhibitor, partial curve] | –
CC(C)C(=O)Nc1ccc(N2CCOCC2)c(S(=O)(=O)Nc2ccccc2Cl)c1 | inconclusive: 79.4 µM [inhibitor, single point] | –
CN(C(=S)NC(=O)C12CC3CC(CC(C3)C1)C2)c1ccc(O)cc1 | inconclusive: 89.1 µM [inhibitor, single point] | –

SMILES | Potency | max response, negative = inhibition
CC(C)CN1C(=O)/C(=C(/C#N)C(=O)NC2CCCCC2)c2ccccc21 | inconclusive: 7.94 µM [inhibitor, full curve, poor fit] | –
O=C1/C(=C/c2cccc(Br)c2)SC(=S)N1/N=C/c1cc([N+](=O)[O-])ccc1O | inconclusive: 28.2 µM [inhibitor, partial curve, poor fit] | –
O=C(CN1CCCCC1)NNc1nc(-c2ccccc2)c2cc(Br)ccc2n1 | – | inactive: 3.45%
O=C(c1cccc(C(F)(F)F)c1)N1CCC(=O)N(C(CO)Cc2ccccc2)CC1 (stereo unspecified) | inconclusive: 89.1 µM [inhibitor, partial curve, poor fit] | –
CCOc1ccc(CCNC(=O)COC(=O)/C=C/c2ccc(OC)c(OC)c2)cc1OCC | – | inactive: -0.223%
Cc1sc(NC(=O)c2ccco2)c(C(c2ccccc2)N2CCC(C)CC2)c1C (stereo unspecified) | inconclusive: 89.1 µM [inhibitor, single point] | –
CCN1C(=NCc2cccc(Cl)c2)N[C@@H](c2cccc(F)c2)C(C(=O)OC)=C1C | – | inactive: -4.87%
O=C(NNC(=O)C1COc2ccccc2O1)c1cccc([N+](=O)[O-])c1 (stereo unspecified) | inconclusive: 100 µM [inhibitor, single point] | –
CC(C)CC(=O)Nc1cccc(-c2nc3ccccc3[nH]2)c1 | inconclusive: 20 µM [inhibitor, partial curve, poor fit] | –
Cc1nnc(NC(=O)CSc2nnc(-c3ccco3)n2C(C)C)s1 | inconclusive: 89.1 µM [inhibitor, single point] | –
O=C(NC(=S)Nc1cccnc1)c1cccs1 | inconclusive: 79.4 µM [inhibitor, partial curve, poor fit] | –
COc1cccc(CNC(=O)[C@H](C)NC(=O)C2CCN(S(=O)(=O)c3ccccc3)CC2)c1 | inconclusive: 39.8 µM [inhibitor, single point] | –
O=C(N[C@@H](Cc1ccccc1)C(=O)CCl)OCc1ccccc1 | active: 17.8 µM and active: 5.62 µM | –
Cc1nnnn1/C(=C\c1ccccc1)C(=O)OCC(=O)Nc1ccc(Cl)cc1F | active: 39.8 µM | –
O=C(c1cc2cc(Cl)ccc2[nH]1)N1CCN(C(=O)c2ccco2)CC1 | inconclusive: 79.4 µM [inhibitor, partial curve, poor fit] | –
CCC(Oc1ccccc1)C(=O)Nc1nc2c(s1)C(=O)CC(C)(C)C2 (stereo unspecified) | – | inactive: -2.37%
COc1cccc(C(=O)COC(=O)C(C)N2C(=O)c3ccccc3C2=O)c1 (stereo unspecified) | – | inactive: 2.82%
CC1Cc2nc(SCC(=O)N3CCc4ccccc43)n(C)c(=O)c2S1 (stereo unspecified) | inconclusive: 79.4 µM [inhibitor, single point] | –
COc1ccc(Cc2nnc(NCCO)[nH]c2=O)cc1OC | inconclusive: 39.8 µM [inhibitor, partial curve, poor fit] | –
CN1CCN(c2cc3c(c4c2[nH]c2ccccc24)C(=O)CC(C)(C)C3)CC1 | – | inactive: -16.8%
COc1ccc(C(C(=O)NC2CCCC2)N(CCN(C)C)C(=O)c2snc(C(N)=O)c2N)cc1 (stereo unspecified) | – | inactive: -10.9%
CN1CCc2c(sc3nc(NN)n(Cc4ccccc4)c(=O)c23)C1 | – | inactive: -6.68%
